Measurements: PMC8143797
Results are given in words; binding and its absence hold for the method and conditions named. In cells and extracts the contact can be indirect. Where a sequence is shown, tags or fusion partners need not be part of it.

Protein sequences, listed by entry. Tags and fused reporters are not part of them.
UniProt Q9GZV5: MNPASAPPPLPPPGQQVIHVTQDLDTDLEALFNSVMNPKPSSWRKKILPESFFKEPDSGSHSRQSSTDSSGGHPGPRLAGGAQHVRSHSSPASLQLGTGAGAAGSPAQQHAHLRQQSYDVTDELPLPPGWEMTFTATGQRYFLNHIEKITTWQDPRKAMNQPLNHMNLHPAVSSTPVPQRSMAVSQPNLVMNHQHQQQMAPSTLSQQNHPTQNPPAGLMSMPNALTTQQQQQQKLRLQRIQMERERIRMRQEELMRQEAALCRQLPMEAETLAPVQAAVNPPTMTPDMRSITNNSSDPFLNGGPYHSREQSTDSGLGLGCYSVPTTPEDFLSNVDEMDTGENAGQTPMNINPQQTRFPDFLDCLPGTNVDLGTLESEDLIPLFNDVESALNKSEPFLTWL

Target: Flag-TAZ (human) (UniProt Q9GZV5)
Experiment: co-IP; HEK293 cells expressing Flag-TAZ-CAMTA1, Flag-TAZ control or Flag-YAP-TFE3, Myc-KAT14 transiently transfected; Flag pull-down against IgG control

- binding: no binding
B1: Triple Myc-tagged KAT14 (protein, UniProt Q9H8E8 1-782)
chain: MDSSIHLSSLISRHDDEATRTSTSEGLEEGEVEGETLLIVESEDQASVDLSHDQSGDSLNSDEGDVSWMEEQLSYFCDKCQKWIPASQLREQLSYLKGDNFFRFTCSDCSADGKEQYERLKLTWQQVVMLAMYNLSLEGSGRQGYFRWKEDICAFIEKHWTFLLGNRKKTSTWWSTVAGCLSVGSPMYFRSGAQEFGEPGWWKLVHNKPPTMKPEGEKLSASTLKIKAASKPTLDPIITVEGLRKRASRNPVESAMELKEKRSRTQEAKDIRRAQKEAAGFLDRSTSSTPVKFISRGRRPDVILEKGEVIDFSSLSSSDRTPLTSPSPSPSLDFSAPGTPASHSATPSLLSEADLIPDVMPPQALFHDDDEMEGDGVIDPGMEYVPPPAGSVASGPVVGVRKKVRGPEQIKQEVESEEEKPDRMDIDSEDTDSNTSLQTRAREKRKPQLEKDTKPKEPRYTPVSIYEEKLLLKRLEACPGAVAMTPEARRLKRKLIVRQAKRDRGLPLFDLDQVVNAALLLVDGIYGAKEGGISRLPAGQATYRTTCQDFRILDRYQTSLPSRKGFRHQTTKFLYRLVGSEDMAVDQSIVSPYTSRILKPYIRRDYETKPPKLQLLSQIRSHLHRSDPHWTPEPDAPLDYCYVRPNHIPTINSMCQEFFWPGIDLSECLQYPDFSVVVLYKKVIIAFGFMVPDVKYNEAYISFLFVHPEWRRAGIATFMIYHLIQTCMGKDVTLHVSASNPAMLLYQKFGFKTEEYVLDFYDKYYPLESTECKHAFFLRLRR
